Experimental data as given in the supplement of paper PMC12823440, “Inhibitors supercharge kinase turnover through native proteolytic circuits” (Nature, 2025).
Where a name gives a salt, the structure may show the parent alone. The list shows a part of the results. Hit calls seldom repeat between salt and free forms of one compound.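 Kinases, fused to nanoluciferase, were expressed in K562 cells; luminescence was measured every 4 h from 2 to 18 h as percent of control (DMSO = 100%, positive control = 0%). A time point is decreased if signal falls significantly (2 sigma). Hits were called by the authors by a rule that is not shown; the count of time points alone does not decide it.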

Amino acid sequences for entries named in this document (tags omitted). A change or cut given only in a name is not applied to a line headed by its entry.
UniProt P06241, whole entry, looked up: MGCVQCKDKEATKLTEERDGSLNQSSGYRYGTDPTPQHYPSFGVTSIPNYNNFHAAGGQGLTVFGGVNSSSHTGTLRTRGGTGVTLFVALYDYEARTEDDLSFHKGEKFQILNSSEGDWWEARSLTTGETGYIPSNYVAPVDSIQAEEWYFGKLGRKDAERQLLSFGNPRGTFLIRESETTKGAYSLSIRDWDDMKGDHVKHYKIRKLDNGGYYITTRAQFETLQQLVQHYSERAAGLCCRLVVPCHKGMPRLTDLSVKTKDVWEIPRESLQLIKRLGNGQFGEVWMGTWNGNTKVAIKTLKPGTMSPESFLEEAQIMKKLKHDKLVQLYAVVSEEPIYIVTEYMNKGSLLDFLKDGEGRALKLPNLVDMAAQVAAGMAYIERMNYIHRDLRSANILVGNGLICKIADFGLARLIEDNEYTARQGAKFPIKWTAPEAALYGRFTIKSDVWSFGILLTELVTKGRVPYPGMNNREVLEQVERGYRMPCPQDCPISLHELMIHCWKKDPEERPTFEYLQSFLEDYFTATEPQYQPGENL
UniProt P49840: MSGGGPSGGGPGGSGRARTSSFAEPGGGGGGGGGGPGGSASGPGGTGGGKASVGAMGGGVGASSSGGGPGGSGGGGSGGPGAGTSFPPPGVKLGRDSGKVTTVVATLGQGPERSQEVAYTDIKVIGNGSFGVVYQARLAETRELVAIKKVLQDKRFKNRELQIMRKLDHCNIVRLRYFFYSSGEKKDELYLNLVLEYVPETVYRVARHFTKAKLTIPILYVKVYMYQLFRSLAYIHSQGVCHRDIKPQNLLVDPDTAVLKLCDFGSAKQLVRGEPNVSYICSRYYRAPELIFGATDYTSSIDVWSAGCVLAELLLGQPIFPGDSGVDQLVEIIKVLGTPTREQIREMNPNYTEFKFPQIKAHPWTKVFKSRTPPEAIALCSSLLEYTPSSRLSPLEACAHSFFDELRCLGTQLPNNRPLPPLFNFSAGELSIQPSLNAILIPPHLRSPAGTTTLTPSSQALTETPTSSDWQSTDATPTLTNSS
UniProt Q9Y616: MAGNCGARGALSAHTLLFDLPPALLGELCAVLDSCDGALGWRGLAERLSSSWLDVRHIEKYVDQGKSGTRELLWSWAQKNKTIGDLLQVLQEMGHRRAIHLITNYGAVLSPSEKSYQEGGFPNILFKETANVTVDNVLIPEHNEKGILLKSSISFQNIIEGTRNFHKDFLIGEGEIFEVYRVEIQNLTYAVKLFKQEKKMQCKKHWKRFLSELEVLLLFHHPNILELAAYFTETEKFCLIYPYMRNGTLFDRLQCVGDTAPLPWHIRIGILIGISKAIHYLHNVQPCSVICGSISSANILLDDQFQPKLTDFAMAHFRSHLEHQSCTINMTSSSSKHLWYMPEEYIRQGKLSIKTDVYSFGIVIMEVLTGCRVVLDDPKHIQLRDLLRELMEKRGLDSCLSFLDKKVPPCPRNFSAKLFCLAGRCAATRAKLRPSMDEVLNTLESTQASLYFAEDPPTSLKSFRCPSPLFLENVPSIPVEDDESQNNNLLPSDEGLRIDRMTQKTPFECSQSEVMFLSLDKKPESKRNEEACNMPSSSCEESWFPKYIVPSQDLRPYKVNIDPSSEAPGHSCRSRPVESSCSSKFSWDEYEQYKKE
UniProt P06239: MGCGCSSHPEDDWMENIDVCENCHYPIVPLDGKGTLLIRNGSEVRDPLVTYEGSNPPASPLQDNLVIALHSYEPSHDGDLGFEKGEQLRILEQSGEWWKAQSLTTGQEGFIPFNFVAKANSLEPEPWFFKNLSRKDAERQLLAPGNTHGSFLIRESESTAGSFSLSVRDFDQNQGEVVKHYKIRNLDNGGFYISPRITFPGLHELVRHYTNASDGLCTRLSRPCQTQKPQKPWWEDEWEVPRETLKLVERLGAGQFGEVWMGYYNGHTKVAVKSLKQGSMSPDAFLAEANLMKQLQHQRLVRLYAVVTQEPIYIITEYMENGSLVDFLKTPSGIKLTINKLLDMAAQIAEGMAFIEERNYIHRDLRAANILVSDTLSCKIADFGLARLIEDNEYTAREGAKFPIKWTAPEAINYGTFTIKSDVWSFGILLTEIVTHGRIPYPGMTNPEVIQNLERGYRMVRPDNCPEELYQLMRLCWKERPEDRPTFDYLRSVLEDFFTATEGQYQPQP
UniProt P53667: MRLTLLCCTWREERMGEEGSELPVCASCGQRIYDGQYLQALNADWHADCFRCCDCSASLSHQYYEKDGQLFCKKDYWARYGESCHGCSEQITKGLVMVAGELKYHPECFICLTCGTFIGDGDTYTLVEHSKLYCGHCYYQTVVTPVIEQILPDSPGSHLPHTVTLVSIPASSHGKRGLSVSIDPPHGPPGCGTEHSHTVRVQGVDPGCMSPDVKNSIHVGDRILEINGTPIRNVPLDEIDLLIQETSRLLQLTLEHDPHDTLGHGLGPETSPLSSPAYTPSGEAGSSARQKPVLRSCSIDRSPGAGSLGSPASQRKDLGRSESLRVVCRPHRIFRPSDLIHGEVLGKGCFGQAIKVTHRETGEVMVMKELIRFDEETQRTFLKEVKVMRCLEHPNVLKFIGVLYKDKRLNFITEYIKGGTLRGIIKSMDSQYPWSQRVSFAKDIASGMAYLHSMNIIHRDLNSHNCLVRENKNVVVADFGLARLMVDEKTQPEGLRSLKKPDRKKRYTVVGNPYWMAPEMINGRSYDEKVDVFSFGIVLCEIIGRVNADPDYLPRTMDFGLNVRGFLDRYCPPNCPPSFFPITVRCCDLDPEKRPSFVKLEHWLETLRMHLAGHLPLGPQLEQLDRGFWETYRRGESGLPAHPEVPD
UniProt P53671: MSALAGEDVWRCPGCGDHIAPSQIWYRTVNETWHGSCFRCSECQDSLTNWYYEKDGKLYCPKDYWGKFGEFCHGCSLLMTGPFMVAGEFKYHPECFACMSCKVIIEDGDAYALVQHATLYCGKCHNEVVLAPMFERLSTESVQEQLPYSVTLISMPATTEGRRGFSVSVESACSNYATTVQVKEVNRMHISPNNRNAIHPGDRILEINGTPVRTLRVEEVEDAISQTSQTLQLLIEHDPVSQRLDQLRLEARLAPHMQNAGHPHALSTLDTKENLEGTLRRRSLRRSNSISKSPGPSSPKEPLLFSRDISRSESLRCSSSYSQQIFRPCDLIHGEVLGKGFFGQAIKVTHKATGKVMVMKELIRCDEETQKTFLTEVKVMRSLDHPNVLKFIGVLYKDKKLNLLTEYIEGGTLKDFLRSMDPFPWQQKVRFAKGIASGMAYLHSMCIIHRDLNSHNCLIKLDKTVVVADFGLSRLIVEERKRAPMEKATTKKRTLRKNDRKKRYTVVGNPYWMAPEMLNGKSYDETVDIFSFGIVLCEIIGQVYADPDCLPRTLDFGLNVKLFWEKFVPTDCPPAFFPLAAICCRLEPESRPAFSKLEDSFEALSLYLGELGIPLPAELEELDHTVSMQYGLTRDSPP
UniProt Q8IWU2: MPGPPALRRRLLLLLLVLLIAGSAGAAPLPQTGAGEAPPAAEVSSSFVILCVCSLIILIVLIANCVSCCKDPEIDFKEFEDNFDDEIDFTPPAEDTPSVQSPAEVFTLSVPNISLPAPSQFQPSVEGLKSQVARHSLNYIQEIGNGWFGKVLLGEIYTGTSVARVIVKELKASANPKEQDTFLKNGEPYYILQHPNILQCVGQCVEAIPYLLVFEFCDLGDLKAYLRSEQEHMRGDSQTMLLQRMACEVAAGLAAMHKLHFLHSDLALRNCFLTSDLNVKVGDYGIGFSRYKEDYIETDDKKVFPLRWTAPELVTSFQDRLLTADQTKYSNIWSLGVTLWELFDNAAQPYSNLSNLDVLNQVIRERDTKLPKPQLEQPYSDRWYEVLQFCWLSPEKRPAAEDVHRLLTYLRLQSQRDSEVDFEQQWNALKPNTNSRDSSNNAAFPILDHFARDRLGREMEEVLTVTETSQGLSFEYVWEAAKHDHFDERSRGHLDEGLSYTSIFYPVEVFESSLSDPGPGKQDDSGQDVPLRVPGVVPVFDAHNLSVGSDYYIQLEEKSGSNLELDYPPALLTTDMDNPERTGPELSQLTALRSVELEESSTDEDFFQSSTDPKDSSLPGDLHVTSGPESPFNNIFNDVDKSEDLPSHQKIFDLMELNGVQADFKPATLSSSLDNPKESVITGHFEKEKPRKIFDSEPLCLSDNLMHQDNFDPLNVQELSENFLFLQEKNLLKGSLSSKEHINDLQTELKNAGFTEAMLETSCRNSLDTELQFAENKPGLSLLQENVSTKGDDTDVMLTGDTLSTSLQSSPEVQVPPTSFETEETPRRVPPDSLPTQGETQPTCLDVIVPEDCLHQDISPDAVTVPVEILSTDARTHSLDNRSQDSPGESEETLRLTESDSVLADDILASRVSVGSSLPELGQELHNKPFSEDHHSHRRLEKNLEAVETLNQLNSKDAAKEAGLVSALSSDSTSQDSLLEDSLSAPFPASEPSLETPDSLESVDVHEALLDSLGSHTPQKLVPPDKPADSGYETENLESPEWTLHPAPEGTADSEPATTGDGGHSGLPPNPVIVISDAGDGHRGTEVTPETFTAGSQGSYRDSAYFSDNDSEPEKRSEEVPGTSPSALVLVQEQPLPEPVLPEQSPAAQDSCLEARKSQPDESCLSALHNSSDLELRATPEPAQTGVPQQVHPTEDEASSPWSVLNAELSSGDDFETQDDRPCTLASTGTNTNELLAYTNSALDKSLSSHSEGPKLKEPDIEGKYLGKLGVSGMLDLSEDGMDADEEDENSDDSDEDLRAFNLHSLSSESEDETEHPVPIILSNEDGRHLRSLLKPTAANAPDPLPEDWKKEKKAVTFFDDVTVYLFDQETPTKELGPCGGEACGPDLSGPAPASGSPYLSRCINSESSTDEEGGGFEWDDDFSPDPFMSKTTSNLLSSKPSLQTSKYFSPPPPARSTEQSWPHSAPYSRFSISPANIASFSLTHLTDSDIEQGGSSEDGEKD
UniProt Q12851: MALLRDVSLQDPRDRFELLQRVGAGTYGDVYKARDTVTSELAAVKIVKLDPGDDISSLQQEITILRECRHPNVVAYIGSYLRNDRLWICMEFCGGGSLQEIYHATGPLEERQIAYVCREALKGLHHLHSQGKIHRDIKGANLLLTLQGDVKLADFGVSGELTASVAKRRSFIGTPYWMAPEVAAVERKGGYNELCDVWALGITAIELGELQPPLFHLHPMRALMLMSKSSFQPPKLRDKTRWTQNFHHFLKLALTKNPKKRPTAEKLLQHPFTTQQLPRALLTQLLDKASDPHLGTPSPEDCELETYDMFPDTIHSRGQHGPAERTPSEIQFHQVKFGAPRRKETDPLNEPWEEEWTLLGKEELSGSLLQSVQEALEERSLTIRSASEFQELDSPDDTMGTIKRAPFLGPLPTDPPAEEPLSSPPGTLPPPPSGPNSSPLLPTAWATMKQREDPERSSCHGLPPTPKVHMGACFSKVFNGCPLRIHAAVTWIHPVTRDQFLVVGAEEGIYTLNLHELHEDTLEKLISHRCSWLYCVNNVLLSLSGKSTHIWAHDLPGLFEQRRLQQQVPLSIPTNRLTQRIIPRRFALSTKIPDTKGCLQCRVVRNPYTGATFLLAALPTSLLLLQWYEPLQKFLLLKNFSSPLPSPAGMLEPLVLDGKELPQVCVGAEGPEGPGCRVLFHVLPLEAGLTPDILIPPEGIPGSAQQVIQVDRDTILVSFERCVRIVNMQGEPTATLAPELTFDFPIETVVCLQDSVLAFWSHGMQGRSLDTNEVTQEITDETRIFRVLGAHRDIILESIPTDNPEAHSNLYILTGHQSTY
UniProt P49137, whole entry, looked up: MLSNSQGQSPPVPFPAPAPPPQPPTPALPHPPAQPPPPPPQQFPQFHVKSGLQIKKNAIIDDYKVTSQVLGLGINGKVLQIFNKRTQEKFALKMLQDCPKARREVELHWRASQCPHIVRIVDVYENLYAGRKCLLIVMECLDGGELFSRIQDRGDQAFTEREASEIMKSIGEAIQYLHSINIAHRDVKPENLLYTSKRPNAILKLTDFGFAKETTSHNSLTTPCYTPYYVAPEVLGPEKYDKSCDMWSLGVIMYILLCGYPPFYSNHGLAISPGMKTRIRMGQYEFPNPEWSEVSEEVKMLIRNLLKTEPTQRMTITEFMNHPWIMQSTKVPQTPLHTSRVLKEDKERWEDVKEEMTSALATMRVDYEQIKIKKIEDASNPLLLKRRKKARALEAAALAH
UniProt Q9BUB5: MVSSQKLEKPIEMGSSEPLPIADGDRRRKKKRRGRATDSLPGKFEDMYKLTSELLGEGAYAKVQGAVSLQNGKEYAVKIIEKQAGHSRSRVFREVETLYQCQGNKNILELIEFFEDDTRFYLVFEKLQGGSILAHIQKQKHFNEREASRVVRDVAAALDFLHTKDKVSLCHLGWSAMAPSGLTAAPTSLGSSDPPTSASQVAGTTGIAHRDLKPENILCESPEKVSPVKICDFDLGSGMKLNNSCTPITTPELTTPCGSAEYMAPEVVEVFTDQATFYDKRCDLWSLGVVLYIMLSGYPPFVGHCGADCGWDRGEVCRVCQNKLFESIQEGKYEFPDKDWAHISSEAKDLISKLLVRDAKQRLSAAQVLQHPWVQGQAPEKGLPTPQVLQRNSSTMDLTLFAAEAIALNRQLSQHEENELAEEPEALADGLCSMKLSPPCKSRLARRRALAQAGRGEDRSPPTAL

Tests used:
Assay in all cases: number of time points (of 5) at which kinase-Nluc abundance scored as decreased, DMSO-normalised (count); higher = more persistent destabilization
Conditions in all cases: K562; 2-18 h
[1] = target: FLT3 (UniProt P36888)
[2] = target: FYN (UniProt P06241)
[3] = target: GSK3A (UniProt P49840)
[4] = target: HER2 (UniProt P04626)
[5] = target: INSRR (UniProt P14616)
[6] = target: IRAK3 (UniProt Q9Y616)
[7] = target: JAK1 (UniProt P23458)
[8] = target: LCK (UniProt P06239)
[9] = target: LIMK1 (UniProt P53667)
[10] = target: LIMK2 (UniProt P53671)
[11] = target: LMTK2 (UniProt Q8IWU2)
[12] = target: LYN (UniProt P07948)
[13] = target: MAP2K1 (UniProt Q02750)
[14] = target: MAP2K2 (UniProt P36507)
[15] = target: MAP4K2 (UniProt Q12851)
[16] = target: MAPK1 (UniProt P28482)
[17] = target: MAPK4 (UniProt P31152)
[18] = target: MAPKAPK2 (UniProt P49137)
[19] = target: MKNK1 (UniProt Q9BUB5)
[20] = target: NTRK2 (UniProt Q16620)

Measured: number of time points

CC(=O)Nc1nc(C)c(-c2cc3c(c(S(C)(=O)=O)c2)C(=O)N([C@@H](C)C2CC2)C3)s1 (2.5 µM)
0: all assays above

CC(=O)NCC(=O)N[C@@H](C)C(=O)N[C@@H](CCC(N)=O)C(=O)N[C@@H](Cc1ccccc1)C(=O)N[C@@H](CO)C(=O)N[C@@H](CCCCN)C(=O)N[C@H](C(=O)N[C@@H](C)C(=O)N[C@@H](C)C(=O)N[C@@H](CCCCN)C(=O)O)[C@@H](C)O (10 µM)
0: all assays above

COC(=O)c1cc2c(OC(C)C)cc(OC(C)C)cc2[nH]1 (2.5 µM)
0: all assays above

CC1=C(C(=O)Nc2ccc3[nH]ncc3c2)C(c2ccc(F)c(C(=O)NCc3ccccn3)c2)NC(=O)N1 (stereo not given) (10 µM)
0: all assays above

CCCC[C@H](CO)Nc1nc(NC)ncc1OC [Interferon receptor inducer-1] (10 µM)
0: all assays above

O=C1NC(=O)C(c2ccccc2[N+](=O)[O-])=C1Nc1ccc(O)c(Cl)c1 (10 µM)
0: all assays above

COC(=O)/C=C/c1ccc(O)c(OC)c1 [Ferulic acid methyl ester] (10 µM)
0: all assays above

CC(C)(C)NS(=O)(=O)c1cncc(-c2cc(F)c3nc(N)nn3c2)c1 (10 µM)
0: all assays above

CN(C)C(=O)c1cc2cnc(Nc3ccc(NC(=O)C4(C(=O)Nc5ccc(F)cc5)CC4)cc3)nc2n1C1CCCC1 (2 µM)
5: [3]
0: all other assays above

O=c1cc(-c2ccc(O)cc2)oc2cc(O)c(O)c(O)c12 [Scutellarein] (10 µM)
0: all assays above

Cc1c(C(=O)Nc2ccc(Oc3ccnc4cc(OCC(C)(C)O)ccc34)c(F)c2)c(=O)n(-c2ccccc2)n1C [Ningetinib Tosylate] (10 µM)
1: [3] | [10] | [17]
3: [2]
2: [4] | [5] | [9]
0: all other assays above

O=C(NCc1cccc(O)c1)c1cc2cc(F)ccc2[nH]1 (10 µM)
0: all assays above

CC[C@H](C)[C@@H]1NC(=O)[C@@H]2CCCN2C(=O)[C@@H]2CCCN2C(=O)[C@@H]2CCCN2C(=O)[C@H](CC(C)C)NC(=O)CNC(=O)CNC(=O)[C@H](Cc2ccccc2)NC1=O [Heterophyllin B] (10 µM)
0: all assays above

C[C@@H](N)COc1ccc(-c2cnc3ccc(N[C@H](C)c4cccc(F)c4)nn23)cc1 [Taletrectinib] (2.5 µM)
0: all assays above

C=CC(=O)N1CCN(c2nc(OC[C@@H]3CCCN3C)nc3c2CCN(c2cccc4cccc(C)c24)C3)C[C@@H]1CC#N (2.5 µM)
0: all assays above

O=C(c1ccc(NS(=O)(=O)c2cccc3cccnc23)cc1)N1CCN(CC2CC2)CC1 [Mitapivat] (10 µM)
0: all assays above

CC(=O)c1cc(O)ccc1O [2,5-Dihydroxyacetophenone] (10 µM)
0: all assays above

O=C(Nc1nccs1)C(c1cc(F)ccc1O)N1Cc2ccccc2C1=O (stereo not given) (10 µM)
0: all assays above

O=C1NCCSc2c1sc1ccc(O)cc21 (2.5 µM)
4: [11]
2: [2]
3: [1]
0: all other assays above

Cc1ccc(Nc2c(C(N)=O)cnc3cc(-c4ccncc4)ccc23)cc1C [cFMS Receptor Inhibitor II] (10 µM)
0: all assays above

C[C@@H]1CC[C@]2(C(=O)O)CC[C@]3(C)C(=CC[C@@H]4[C@@]5(C)CC[C@H](O)[C@@](C)(CO)[C@@H]5CC[C@]43C)[C@@H]2[C@]1(C)O [Rotundic acid] (10 µM)
0: all assays above

O=c1cc(-c2ccc(O)cc2)oc2cc(O)c([C@@H]3O[C@H](CO)[C@@H](O)[C@H](O)[C@H]3O)c(O)c12 [Isovitexin] (10 µM)
0: all assays above

CCS(=O)(=O)c1ccc(Oc2cc(O[C@@H](C)CO)cc(C(=O)Nc3ccn(C)n3)c2)cn1 (10 µM)
0: all assays above

C[C@]1(O)C[C@@](N)(c2ccc(-c3nc4n(c3-c3ccccc3)COc3ccncc3-4)cc2)C1 [TAS-117 (hydrochloride)] (10 µM)
0: all assays above

O=c1[nH]nc(Sc2ncc([N+](=O)[O-])s2)n1-c1ccc2c(c1)OCCO2 (2.5 µM)
0: all assays above

CCC(=O)N1CC[C@H](Nc2ncnc3c2CN(c2cnc(OC)c(C(F)(F)F)c2)CC3)C1 [Leniolisib] (10 µM)
0: all assays above

CN(c1ccc(C(F)(F)F)cc1)S(=O)(=O)c1ccc(C(=O)Nc2nc(-c3ccccn3)cs2)cc1 (2.5 µM)
0: all assays above

COc1ccc(C2CC(c3ccc(Cl)cc3)=NN2c2nc(-c3ccncc3)cs2)cc1 (stereo not given) [mTOR inhibitor-8] (10 µM)
0: all assays above

O=c1cc(N2CCOCC2)oc2c1ccc1ccccc12 (2 µM)
0: all assays above

C=CCN(/C=C1/C(=O)O[C@H](COC)[C@@]2(C)C1=C(O)C(=O)C1=C2[C@H](OC(C)=O)C[C@]2(C)C(=O)CC[C@@H]12)CC=C [Sonolisib] (2.5 µM)
3: [2] | [4]
1: [7] | [10]
0: all other assays above

O=C(Nc1nc2cccc(-c3ccc(CN4CCS(=O)(=O)CC4)cc3)n2n1)C1CC1 [Filgotinib] (2.5 µM)
0: all assays above

CNC(=O)c1nnc(NC(=O)C2CC2)cc1Nc1cccc(-c2ncn(C)n2)c1OC [Deucravacitinib] (10 µM)
0: all assays above

Compounds from the list above that contain a CF3 group, in the order listed:
CCC(=O)N1CC[C@H](Nc2ncnc3c2CN(c2cnc(OC)c(C(F)(F)F)c2)CC3)C1 [Leniolisib] (10 µM)
0: all assays above

CN(c1ccc(C(F)(F)F)cc1)S(=O)(=O)c1ccc(C(=O)Nc2nc(-c3ccccn3)cs2)cc1 (2.5 µM)
0: all assays above

Going on with the list.

CN1CCN(c2ccc(NC(=O)c3ccc(C#N)o3)c(N3CCCCC3)c2)CC1 (10 µM)
0: all assays above

CC(C)Cn1cc(C#N)c2cc(Oc3ccc(NC(=O)[C@@H]4CCCN4)cc3)ccc21 (10 µM)
0: all assays above

Cc1ccc(-n2c(-c3ccc(O)cc3O)n[nH]c2=O)cc1 (10 µM)
4: [1] | [10] | [11] | [20]
5: [2] | [4] | [5] | [7]
2: [12] | [17]
0: all other assays above

COc1cc2nccc(Oc3ccc(NC(=O)Nc4ccc(F)cc4F)c(F)c3)c2cc1OC (10 µM)
2: [4] | [9]
1: [5]
0: all other assays above

Retrieved by structure from the list above, two records:
CCCC[C@H](CO)Nc1nc(NC)ncc1OC [Interferon receptor inducer-1] (10 µM)
0: all assays above

C=CCN(/C=C1/C(=O)O[C@H](COC)[C@@]2(C)C1=C(O)C(=O)C1=C2[C@H](OC(C)=O)C[C@]2(C)C(=O)CC[C@@H]12)CC=C [Sonolisib] (2.5 µM)
3: [2] | [4]
1: [7] | [10]
0: all other assays above

Remaining list, next part.

O=C(Nc1nccs1)C(c1cc(F)ccc1O)N1Cc2ccc(-c3ccc(N4CCNCC4)cc3)cc2C1=O (racemic) (10 µM)
1: [12] | [17]
2: [9]
0: all other assays above

CC(C)c1cnn2c(NCc3ccccc3)cc(NCCCCCCN)nc12 [BS-181 (hydrochloride)] (10 µM)
3: [10]
0: all other assays above

Clc1ccc(Nc2cccc(-c3cn[nH]c3)c2)cc1 (10 µM)
0: all assays above

CCCCNc1ncc2c(-c3ccc(CN4CCN(C)CC4)cc3)cn([C@H]3CC[C@H](O)CC3)c2n1 [UNC2025 (hydrochloride)] (2.5 µM)
3: [2] | [6] | [9]
1: [5]
0: all other assays above

COc1cc(-c2cnc(N)c(-c3ccc(NC(=O)c4cn(CC5CCOCC5)cc(-c5ccc(C)cn5)c4=O)cc3F)c2)ccc1OC[C@H]1COCCO1 [DS-1205b (free base)] (10 µM)
0: all assays above

CNC(=O)c1c(C)oc2cc(Oc3ncnc4cc(OC)c(OC)cc34)ccc12 [Fruquintinib] (10 µM)
0: all assays above

C[C@H](Nc1ccc2c(c1)OCCn1cc(N3C(=O)OC[C@H]3C(F)F)nc1-2)C(N)=O (10 µM)
0: all assays above

Cc1cc(F)c(Nc2ncnc3cc(OCc4ccccc4)ccc23)cc1O (10 µM)
0: all assays above

CN(C/C=C/C(=O)Nc1ccc(C(=O)Nc2cccc(Nc3ncc(Cl)c(-c4c[nH]c5ccccc45)n3)c2)cc1)CCCNC(=O)NCCOCCOCCOCCNC(=O)CCCC[C@@H]1SC[C@@H]2NC(=O)N[C@@H]21 (2.5 µM)
2: [3] | [4] | [6] | [12] | [20]
1: [5] | [10]
0: all other assays above

COc1cc(Nc2nc3ccccc3nc2NS(=O)(=O)c2ccc(NC(=O)c3ccc(C)c(OC)c3)cc2)cc(OC)c1 (10 µM)
0: all assays above

Cn1c(=O)c(Oc2ccc(F)cc2F)cc2cnc(NC(CCO)CCO)nc21 [Pamapimod] (10 µM)
0: all assays above
